# Measurements as given in the supplement of paper PMC10849652.
# Sequences of proteins named here, by UniProt entry; tags and fusion partners are left off. A change or cut given only in a name is not applied to a line headed by its entry.
# UniProt Q9NRC1: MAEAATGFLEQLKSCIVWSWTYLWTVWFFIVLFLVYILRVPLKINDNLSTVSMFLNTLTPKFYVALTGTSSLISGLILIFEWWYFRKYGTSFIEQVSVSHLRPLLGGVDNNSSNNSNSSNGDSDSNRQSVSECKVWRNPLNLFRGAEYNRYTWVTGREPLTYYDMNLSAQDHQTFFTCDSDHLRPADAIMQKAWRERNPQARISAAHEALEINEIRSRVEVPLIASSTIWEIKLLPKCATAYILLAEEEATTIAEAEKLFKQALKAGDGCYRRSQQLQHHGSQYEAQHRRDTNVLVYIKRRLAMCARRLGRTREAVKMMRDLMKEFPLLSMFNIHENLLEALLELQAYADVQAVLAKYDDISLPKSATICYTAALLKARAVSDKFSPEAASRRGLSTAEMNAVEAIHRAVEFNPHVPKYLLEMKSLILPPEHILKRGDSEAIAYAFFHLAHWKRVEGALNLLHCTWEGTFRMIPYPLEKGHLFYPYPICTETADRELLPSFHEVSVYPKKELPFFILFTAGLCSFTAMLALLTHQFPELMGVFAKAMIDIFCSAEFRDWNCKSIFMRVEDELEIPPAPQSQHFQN
# UniProt Q16629: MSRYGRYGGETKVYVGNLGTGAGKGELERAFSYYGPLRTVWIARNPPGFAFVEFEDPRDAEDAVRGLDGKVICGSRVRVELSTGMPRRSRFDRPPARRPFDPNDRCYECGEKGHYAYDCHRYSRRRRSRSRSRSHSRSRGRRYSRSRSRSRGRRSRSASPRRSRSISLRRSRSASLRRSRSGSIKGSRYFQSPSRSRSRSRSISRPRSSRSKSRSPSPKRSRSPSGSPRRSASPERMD
# UniProt P10124: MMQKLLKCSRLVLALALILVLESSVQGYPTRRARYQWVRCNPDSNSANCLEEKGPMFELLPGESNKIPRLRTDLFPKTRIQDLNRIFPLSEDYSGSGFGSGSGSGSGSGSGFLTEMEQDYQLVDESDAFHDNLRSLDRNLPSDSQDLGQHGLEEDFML
# UniProt Q9C004: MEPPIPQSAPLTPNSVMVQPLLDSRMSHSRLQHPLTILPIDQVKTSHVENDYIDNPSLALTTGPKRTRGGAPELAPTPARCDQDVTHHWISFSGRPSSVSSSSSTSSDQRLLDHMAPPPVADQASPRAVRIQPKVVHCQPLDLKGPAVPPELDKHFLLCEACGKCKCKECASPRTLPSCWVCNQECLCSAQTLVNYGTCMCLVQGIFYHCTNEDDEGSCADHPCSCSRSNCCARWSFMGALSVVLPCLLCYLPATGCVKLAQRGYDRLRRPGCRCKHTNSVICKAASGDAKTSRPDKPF
# UniProt Q8IYB3: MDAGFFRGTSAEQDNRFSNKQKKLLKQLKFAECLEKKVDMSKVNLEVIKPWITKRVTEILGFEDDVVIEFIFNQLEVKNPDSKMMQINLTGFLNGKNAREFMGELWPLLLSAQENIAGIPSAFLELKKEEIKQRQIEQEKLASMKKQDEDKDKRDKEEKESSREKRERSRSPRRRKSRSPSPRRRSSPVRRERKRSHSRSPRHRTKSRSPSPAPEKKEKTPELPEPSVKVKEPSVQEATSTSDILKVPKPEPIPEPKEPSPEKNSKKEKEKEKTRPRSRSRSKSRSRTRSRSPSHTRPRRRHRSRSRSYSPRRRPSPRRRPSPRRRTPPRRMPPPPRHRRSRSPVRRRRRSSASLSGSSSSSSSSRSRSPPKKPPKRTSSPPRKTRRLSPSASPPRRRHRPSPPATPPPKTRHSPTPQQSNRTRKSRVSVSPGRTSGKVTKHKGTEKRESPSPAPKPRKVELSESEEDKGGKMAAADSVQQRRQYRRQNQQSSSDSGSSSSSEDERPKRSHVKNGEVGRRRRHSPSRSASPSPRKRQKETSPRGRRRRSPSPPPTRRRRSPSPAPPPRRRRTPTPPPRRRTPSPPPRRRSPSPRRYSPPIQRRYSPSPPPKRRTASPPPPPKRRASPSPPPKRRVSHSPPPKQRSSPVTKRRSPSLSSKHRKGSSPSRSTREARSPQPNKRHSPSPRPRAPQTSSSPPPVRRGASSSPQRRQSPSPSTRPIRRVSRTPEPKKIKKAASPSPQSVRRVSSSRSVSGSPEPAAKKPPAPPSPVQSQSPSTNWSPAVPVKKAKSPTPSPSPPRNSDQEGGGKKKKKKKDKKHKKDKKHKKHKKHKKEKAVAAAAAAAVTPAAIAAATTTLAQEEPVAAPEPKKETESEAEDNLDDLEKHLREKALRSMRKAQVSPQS
# UniProt Q96JI7: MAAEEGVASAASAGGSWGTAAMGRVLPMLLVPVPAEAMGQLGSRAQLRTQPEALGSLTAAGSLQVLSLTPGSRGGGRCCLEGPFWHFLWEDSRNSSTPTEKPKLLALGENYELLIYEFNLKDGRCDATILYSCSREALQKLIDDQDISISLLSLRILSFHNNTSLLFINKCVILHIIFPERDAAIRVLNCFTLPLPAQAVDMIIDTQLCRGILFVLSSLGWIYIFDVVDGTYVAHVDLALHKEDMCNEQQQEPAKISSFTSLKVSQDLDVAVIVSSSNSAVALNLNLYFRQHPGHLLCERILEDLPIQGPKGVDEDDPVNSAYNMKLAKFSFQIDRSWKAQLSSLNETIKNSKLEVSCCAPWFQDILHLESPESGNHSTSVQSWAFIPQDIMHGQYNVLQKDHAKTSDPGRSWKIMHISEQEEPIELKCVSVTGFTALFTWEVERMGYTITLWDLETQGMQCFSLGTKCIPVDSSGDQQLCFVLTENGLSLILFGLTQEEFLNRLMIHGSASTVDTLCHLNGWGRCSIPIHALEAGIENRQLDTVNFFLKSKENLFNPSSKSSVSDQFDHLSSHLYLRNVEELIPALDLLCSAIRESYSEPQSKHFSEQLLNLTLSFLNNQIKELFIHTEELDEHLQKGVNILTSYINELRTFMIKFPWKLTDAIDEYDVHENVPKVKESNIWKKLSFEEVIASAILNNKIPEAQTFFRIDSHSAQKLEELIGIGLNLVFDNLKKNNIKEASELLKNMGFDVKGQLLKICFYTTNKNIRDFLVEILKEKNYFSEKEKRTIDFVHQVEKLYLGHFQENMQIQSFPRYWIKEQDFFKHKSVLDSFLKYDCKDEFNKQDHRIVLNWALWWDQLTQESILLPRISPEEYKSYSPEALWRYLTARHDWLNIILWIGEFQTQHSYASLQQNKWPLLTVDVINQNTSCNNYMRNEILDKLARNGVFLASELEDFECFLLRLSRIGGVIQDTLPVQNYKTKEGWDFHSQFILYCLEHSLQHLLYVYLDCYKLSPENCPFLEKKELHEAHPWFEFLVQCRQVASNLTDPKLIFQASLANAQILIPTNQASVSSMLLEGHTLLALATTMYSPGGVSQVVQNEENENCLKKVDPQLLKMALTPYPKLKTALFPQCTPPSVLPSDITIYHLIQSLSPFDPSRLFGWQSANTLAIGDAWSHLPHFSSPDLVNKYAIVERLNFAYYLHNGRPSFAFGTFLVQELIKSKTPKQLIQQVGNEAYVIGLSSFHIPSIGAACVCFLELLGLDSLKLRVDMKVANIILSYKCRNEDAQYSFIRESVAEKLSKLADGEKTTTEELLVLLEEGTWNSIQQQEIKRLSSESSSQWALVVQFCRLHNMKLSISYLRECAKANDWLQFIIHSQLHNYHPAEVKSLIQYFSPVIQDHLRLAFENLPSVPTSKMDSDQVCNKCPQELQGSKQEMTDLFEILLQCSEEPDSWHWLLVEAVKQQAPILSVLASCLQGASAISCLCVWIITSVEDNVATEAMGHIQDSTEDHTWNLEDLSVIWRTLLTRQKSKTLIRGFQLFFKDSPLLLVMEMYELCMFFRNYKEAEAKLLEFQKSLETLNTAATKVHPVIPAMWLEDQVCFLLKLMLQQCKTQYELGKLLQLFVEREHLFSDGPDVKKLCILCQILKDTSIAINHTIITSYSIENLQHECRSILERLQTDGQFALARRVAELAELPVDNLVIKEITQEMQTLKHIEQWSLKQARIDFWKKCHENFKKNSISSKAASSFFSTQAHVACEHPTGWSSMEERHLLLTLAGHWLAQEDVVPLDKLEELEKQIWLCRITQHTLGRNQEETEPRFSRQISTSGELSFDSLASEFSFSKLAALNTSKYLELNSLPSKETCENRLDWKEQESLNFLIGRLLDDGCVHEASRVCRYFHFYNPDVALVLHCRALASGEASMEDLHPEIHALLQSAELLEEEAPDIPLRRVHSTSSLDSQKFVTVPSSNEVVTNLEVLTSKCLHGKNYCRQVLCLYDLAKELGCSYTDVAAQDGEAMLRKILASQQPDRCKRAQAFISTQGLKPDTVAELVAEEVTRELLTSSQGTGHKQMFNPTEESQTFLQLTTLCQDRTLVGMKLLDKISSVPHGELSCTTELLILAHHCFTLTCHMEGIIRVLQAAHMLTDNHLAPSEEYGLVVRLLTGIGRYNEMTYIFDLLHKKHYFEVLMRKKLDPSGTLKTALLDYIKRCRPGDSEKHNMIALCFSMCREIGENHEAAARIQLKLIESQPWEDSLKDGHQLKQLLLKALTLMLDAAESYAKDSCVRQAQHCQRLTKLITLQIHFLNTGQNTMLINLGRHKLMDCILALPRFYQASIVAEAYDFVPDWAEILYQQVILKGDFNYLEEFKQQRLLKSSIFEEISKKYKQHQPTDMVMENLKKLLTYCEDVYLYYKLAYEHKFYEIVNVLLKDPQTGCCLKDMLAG
# UniProt Q9NYA1, whole entry, looked up: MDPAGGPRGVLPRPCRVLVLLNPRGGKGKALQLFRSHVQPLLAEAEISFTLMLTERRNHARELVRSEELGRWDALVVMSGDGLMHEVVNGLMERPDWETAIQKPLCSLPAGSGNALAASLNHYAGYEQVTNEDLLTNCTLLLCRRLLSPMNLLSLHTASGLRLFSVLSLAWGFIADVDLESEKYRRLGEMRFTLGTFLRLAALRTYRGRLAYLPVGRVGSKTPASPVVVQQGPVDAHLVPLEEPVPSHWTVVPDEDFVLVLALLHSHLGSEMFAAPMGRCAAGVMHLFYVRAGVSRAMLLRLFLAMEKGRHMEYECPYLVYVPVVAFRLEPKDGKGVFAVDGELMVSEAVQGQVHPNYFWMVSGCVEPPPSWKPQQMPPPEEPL
# UniProt Q658P3: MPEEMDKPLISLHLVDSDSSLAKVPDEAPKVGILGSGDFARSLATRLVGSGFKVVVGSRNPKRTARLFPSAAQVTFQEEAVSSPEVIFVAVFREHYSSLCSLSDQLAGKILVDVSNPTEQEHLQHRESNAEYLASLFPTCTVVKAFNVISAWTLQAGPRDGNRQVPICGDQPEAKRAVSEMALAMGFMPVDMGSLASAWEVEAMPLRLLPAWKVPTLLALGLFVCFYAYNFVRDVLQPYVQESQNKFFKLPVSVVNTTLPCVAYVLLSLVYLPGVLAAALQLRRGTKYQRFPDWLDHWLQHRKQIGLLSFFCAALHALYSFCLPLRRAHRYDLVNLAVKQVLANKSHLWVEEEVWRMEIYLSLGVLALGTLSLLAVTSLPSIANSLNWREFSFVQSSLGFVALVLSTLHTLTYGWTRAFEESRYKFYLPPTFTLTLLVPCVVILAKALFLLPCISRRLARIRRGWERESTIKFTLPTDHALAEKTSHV
# UniProt Q5M775: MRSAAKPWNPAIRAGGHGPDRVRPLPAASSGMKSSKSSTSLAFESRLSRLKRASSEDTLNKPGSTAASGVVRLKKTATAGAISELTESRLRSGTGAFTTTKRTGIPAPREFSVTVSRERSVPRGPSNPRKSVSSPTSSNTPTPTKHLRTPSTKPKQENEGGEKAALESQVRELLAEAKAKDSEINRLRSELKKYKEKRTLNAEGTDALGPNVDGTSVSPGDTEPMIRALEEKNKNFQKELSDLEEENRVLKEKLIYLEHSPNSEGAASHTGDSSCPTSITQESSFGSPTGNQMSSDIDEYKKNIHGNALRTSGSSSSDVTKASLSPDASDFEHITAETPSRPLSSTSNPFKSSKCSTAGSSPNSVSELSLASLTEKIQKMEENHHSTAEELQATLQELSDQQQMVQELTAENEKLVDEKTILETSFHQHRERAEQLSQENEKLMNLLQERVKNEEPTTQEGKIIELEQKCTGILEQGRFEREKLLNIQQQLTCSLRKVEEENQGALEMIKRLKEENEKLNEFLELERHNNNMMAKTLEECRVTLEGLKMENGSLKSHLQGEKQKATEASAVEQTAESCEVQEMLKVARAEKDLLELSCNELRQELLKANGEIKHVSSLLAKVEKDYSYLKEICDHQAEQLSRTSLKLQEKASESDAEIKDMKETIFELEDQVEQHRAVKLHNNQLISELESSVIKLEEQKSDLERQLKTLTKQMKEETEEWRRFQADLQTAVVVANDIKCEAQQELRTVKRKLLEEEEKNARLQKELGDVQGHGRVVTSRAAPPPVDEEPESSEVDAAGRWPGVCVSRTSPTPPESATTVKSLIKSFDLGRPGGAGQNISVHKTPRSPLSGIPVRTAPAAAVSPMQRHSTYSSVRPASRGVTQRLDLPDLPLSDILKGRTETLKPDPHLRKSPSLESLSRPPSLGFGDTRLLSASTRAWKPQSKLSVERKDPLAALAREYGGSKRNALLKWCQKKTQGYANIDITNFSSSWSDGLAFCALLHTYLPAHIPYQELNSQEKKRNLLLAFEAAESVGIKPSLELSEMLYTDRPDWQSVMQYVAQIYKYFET
# The other results are listed elsewhere or left out.
# What was measured:
# Test in all cases: log2 fold change, soluble protein after heating vs DMSO (PISA); higher = thermal stabilisation; K562 lysate, 10 uM; active = over 0.2 and 3.5 SD of the protein, either way, in both replicates (recomputed)
# lapatinib = compound: CS(=O)(=O)CCNCc1ccc(-c2ccc3ncnc(Nc4ccc(OCc5cccc(F)c5)c(Cl)c4)c3c2)o1 [lapatinib]
# Method in brief: (§1)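 Pellets of K562 cells were dounce-homogenised in PBS pH 7.4 with 1 mM MgCl2, and the crude extract was held at 1 mg/mL protein for a 30 min treatment with 10 μM compound. Aliquots were heated for 3 min over 48°C-58°C and pooled before NP-40 was added to 0.5% at 4°C. The supernatant from 21,000xg for 90 min was quantified by TMTpro 16plex LC-MS/MS with channel sums equalised. Values are reported from duplicates as log-two fold change in thermal stability relative to solvent controls.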
# pictilisib = compound: CS(=O)(=O)N1CCN(Cc2cc3nc(-c4cccc5[nH]ncc45)nc(N4CCOCC4)c3s2)CC1 [pictilisib]
# Method in brief: as §1
# crizotinib = compound: C[C@@H](Oc1cc(-c2cnn(C3CCNCC3)c2)cnc1N)c1c(Cl)ccc(F)c1Cl [crizotinib]
# Method in brief: as §1
# [1] = compound: C[C@H](C1=CC=C(C=C1)C(=O)NC2=C3C=CNC3=NC=C2)N
# Method in brief: as §1
# duvelisib = compound: C[C@H](Nc1ncnc2nc[nH]c12)c1cc2cccc(Cl)c2c(=O)n1-c1ccccc1 [duvelisib]
# Method in brief: as §1
# gandotinib = compound: Cc1cc(Nc2cc(CN3CCOCC3)c3nc(C)c(Cc4ccc(Cl)cc4F)n3n2)n[nH]1 [gandotinib]
# Method in brief: as §1
# tozasertib = compound: Cc1cc(Nc2cc(N3CCN(C)CC3)nc(Sc3ccc(NC(=O)C4CC4)cc3)n2)n[nH]1 [tozasertib]
# Method in brief: as §1
# doramapimod = compound: Cc1ccc(-n2nc(C(C)(C)C)cc2NC(=O)Nc2ccc(OCCN3CCOCC3)c3ccccc23)cc1 [doramapimod]
# Method in brief: as §1
# bafetinib = compound: Cc1ccc(NC(=O)c2ccc(CN3CC[C@H](N(C)C)C3)c(C(F)(F)F)c2)cc1Nc1nccc(-c2cncnc2)n1 [bafetinib]
# Method in brief: as §1
# [2] = compound: Cc1cccc(CC(=O)N2CCc3c2ccc(-c2cn(C)c4ncnc(N)c24)c3F)n1
# Method in brief: as §1
Target,log2 fold change (lapatinib),log2 fold change (pictilisib),log2 fold change (crizotinib),log2 fold change [1],log2 fold change (duvelisib),log2 fold change (gandotinib),log2 fold change (tozasertib),log2 fold change (doramapimod),log2 fold change (bafetinib),log2 fold change [2]
SRPK2 isoform 2 (UniProt P78362),inactive: -0.031,inactive: 0.004,inactive: -0.054,inactive: -0.099,inactive: 0.083,inactive: 0.1,inactive: -0.021,inactive: 0.182,inactive: -0.064,inactive: 0.017
STAU2 (UniProt Q9NUL3),inactive: -0.022,inactive: -0.019,inactive: -0.131,inactive: 0.054,inactive: 0.05,inactive: 0.005,inactive: -0.009,inactive: 0.023,inactive: -0.052,inactive: 0.03
SRSF9 (UniProt Q13242),inactive: 0.014,inactive: 0.046,inactive: 0.006,inactive: -0.019,inactive: 0.011,inactive: -0.003,inactive: 0.019,inactive: 0.085,inactive: -0.028,inactive: 0.053
ST7 (UniProt Q9NRC1),inactive: -0.033,inactive: -0.012,inactive: -0.026,inactive: -0.051,inactive: -0.054,inactive: 0,inactive: 0.029,inactive: -0.024,inactive: 0.01,inactive: 0.191
SSRP1 (UniProt Q08945),inactive: -0.007,inactive: -0.007,inactive: 0.008,inactive: -0.006,inactive: 0.008,inactive: -0.035,inactive: 0.002,inactive: 0.039,inactive: -0.026,inactive: 0.006
SRSF5 (UniProt Q13243),inactive: -0.02,inactive: 0.03,inactive: -0.018,inactive: -0.036,inactive: -0.008,inactive: 0.037,inactive: 0.015,inactive: -0.009,inactive: -0.017,inactive: 0.007
SPTB isoform 2 (UniProt P11277),inactive: 0.011,inactive: -0.036,inactive: -0.065,inactive: -0.054,inactive: -0.027,inactive: -0.047,inactive: 0.009,inactive: 0.005,inactive: -0.061,inactive: 0.083
SRSF2 (UniProt Q01130),inactive: 0.015,inactive: -0.005,inactive: 0.006,active: -0.299,inactive: 0.061,inactive: 0.079,inactive: 0.026,inactive: 0.05,inactive: -0.016,inactive: 0.109
SRSF7 (UniProt Q16629),inactive: -0.061,inactive: 0.075,inactive: 0.084,active: -0.218,inactive: 0.058,inactive: 0,inactive: 0.036,inactive: -0.01,inactive: 0.05,inactive: 0.194
STAT3 isoform 2 (UniProt P40763),inactive: -0.008,inactive: 0.025,inactive: -0.027,inactive: 0.043,inactive: 0,inactive: -0.049,inactive: -0.018,inactive: -0.003,inactive: -0.03,inactive: -0.01
SRGN (UniProt P10124),inactive: 0.016,inactive: -0.181,inactive: -0.054,inactive: -0.046,inactive: 0.019,inactive: -0.097,inactive: 0.008,inactive: -0.071,inactive: -0.17,inactive: 0.192
STAT2 (UniProt P52630),inactive: 0.005,inactive: -0.024,inactive: -0.146,inactive: 0.008,inactive: 0.004,inactive: -0.082,inactive: 0.047,inactive: 0.037,inactive: -0.078,inactive: 0.093
SPRY4 (UniProt Q9C004),inactive: -0.022,inactive: -0.001,inactive: -0.046,inactive: -0.022,inactive: 0.009,inactive: 0.126,inactive: -0.032,inactive: 0.026,inactive: 0.032,inactive: 0.029
SRRM1 (UniProt Q8IYB3),inactive: 0.006,inactive: -0.002,inactive: 0.034,inactive: -0.019,inactive: -0.023,inactive: -0.063,inactive: -0.002,inactive: -0.124,inactive: -0.031,inactive: 0.03
SPTBN1 (UniProt Q01082),inactive: -0.011,inactive: -0.025,inactive: -0.006,inactive: 0.001,inactive: -0.011,inactive: -0.02,inactive: 0.004,inactive: -0.005,inactive: -0.027,inactive: 0.008
SPC25 (UniProt Q9HBM1),inactive: 0.029,inactive: 0.029,inactive: 0.001,inactive: -0.01,inactive: -0.021,inactive: -0.007,inactive: -0.013,inactive: -0.005,inactive: -0.031,inactive: 0.011
SRPRB (UniProt Q9Y5M8),inactive: -0.002,inactive: 0.009,inactive: 0.103,inactive: -0.03,inactive: -0.034,inactive: -0.088,inactive: 0.034,inactive: -0.014,inactive: 0.023,inactive: -0.02
SPTA1 (UniProt P02549),inactive: -0.015,inactive: -0.017,inactive: -0.043,inactive: -0.01,inactive: -0.019,inactive: -0.05,inactive: 0.026,inactive: -0.009,inactive: -0.047,inactive: 0.03
STAT5B (UniProt P51692),inactive: 0.029,inactive: -0.022,inactive: -0.096,inactive: -0.05,inactive: -0.064,inactive: -0.036,inactive: 0.011,inactive: -0.016,inactive: -0.034,inactive: 0.03
SSR4 (UniProt P51571),inactive: -0.021,inactive: -0.074,inactive: 0.046,inactive: -0.053,inactive: 0.006,inactive: 0.03,inactive: -0.074,inactive: 0.006,inactive: 0.011,inactive: -0.008
SRP54 (UniProt P61011),inactive: 0.021,inactive: -0.021,inactive: 0.019,inactive: -0.035,inactive: -0.024,inactive: 0.039,inactive: -0.004,inactive: 0.041,inactive: -0.029,inactive: 0.04
SPG11 (UniProt Q96JI7),inactive: -0.163,inactive: -0.021,inactive: -0.102,inactive: -0.049,inactive: 0.048,inactive: 0,inactive: 0.047,inactive: 0.024,inactive: 0.138,inactive: -0.009
SPG7 (UniProt Q9UQ90),inactive: -0.092,inactive: 0.032,inactive: -0.044,inactive: 0.005,inactive: 0.037,inactive: -0.122,inactive: 0.071,inactive: -0.008,inactive: -0.055,inactive: -0.036
"SPCS1, A0A5F9YFS9",inactive: -0.022,inactive: -0.125,inactive: 0.021,inactive: -0.01,inactive: -0.229,inactive: -0.004,inactive: -0.078,inactive: -0.074,inactive: -0.162,inactive: -0.028
SPHK1 isoform 2 (UniProt Q9NYA1),inactive: -0.039,inactive: 0.001,inactive: -0.018,inactive: -0.028,inactive: 0.013,inactive: 0.033,inactive: 0.122,inactive: 0.073,inactive: -0.007,inactive: -0.041
SREK1 isoform 2 (UniProt Q8WXA9),inactive: 0.009,inactive: -0.016,inactive: -0.008,inactive: -0.059,inactive: -0.016,inactive: -0.048,inactive: -0.032,inactive: 0.006,inactive: 0.015,inactive: 0.041
STARD7 (UniProt Q9NQZ5),inactive: -0.023,inactive: 0.025,inactive: -0.096,inactive: 0.023,inactive: 0.031,inactive: -0.024,inactive: 0.025,inactive: -0.017,inactive: -0.084,inactive: -0.037
STEAP3 isoform 2 (UniProt Q658P3),inactive: -0.01,inactive: 0,inactive: 0.023,inactive: -0.101,inactive: -0.072,inactive: 0.113,inactive: -0.069,inactive: 0.061,inactive: -0.014,inactive: 0.104
SPECC1 (UniProt Q5M775),inactive: 0.032,inactive: 0,inactive: -0.025,inactive: 0.014,inactive: -0.004,inactive: 0.036,inactive: 0.065,inactive: 0.04,inactive: 0.032,inactive: -0.004
STAG1 (UniProt Q8WVM7),inactive: -0.079,inactive: 0.205,inactive: -0.011,inactive: 0.018,inactive: -0.019,inactive: -0.052,inactive: -0.03,inactive: -0.098,inactive: 0.115,inactive: 0.229

# Single records, from the list above. Values in the order: log2 fold change (lapatinib) | log2 fold change (pictilisib) | log2 fold change (crizotinib) | log2 fold change [1] | log2 fold change (duvelisib) | log2 fold change (gandotinib) | log2 fold change (tozasertib) | log2 fold change (doramapimod) | log2 fold change (bafetinib) | log2 fold change [2]
# SSR4 (UniProt P51571) as listed: inactive: -0.021 | inactive: -0.074 | inactive: 0.046 | inactive: -0.053 | inactive: 0.006 | inactive: 0.03 | inactive: -0.074 | inactive: 0.006 | inactive: 0.011 | inactive: -0.008
# SRSF2 (UniProt Q01130) as listed: inactive: 0.015 | inactive: -0.005 | inactive: 0.006 | active: -0.299 | inactive: 0.061 | inactive: 0.079 | inactive: 0.026 | inactive: 0.05 | inactive: -0.016 | inactive: 0.109
